Measured values from publication PMC11419255.
No constants are given. Whether binding was seen depends on the method and setting. In cells and extracts the contact can be indirect. Some binding calls cover weakened binding; strength is not graded here.

The chains behind the UniProt entries cited, without tags or fusion partners. Residues count along the entry.
UniProt Q15388: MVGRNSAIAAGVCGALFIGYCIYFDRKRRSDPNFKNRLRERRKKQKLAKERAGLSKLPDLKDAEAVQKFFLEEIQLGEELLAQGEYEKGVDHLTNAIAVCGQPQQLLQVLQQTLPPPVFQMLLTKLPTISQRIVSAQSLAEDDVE
UniProt P10809, residues 27-573: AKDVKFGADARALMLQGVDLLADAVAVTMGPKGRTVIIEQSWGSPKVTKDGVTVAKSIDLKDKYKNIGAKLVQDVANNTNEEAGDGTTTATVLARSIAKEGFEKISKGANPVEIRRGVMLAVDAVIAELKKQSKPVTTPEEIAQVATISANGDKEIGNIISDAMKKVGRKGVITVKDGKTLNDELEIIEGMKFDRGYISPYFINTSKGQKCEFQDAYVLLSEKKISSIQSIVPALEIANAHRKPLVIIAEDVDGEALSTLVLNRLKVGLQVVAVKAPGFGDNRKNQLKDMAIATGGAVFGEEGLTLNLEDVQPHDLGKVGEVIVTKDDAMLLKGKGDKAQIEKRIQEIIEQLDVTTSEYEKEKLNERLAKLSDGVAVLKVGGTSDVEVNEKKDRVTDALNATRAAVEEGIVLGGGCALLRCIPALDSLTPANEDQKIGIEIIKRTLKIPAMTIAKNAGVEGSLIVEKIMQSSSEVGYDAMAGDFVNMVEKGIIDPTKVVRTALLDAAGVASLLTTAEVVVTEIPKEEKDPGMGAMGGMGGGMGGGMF
UniProt O75489: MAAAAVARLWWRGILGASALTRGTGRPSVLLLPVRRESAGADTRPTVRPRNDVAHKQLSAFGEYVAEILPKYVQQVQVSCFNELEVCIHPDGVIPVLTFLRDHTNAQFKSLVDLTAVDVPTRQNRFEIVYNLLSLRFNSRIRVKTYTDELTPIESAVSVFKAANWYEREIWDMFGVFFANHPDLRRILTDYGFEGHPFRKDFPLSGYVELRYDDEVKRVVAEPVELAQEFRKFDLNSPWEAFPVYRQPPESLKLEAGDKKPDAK

Legend:
[1] = target: T1, ZNF598 (human (endogenous in LN299 and T24)) (UniProt Q86UK7); assay: co-IP; IP with anti-ZNF598 from the mitochondrial fractions of T24 cells, with or without EME; NP40 IP-lysis buffer, antibody overnight at 4°C, magnetic beads, Western blot
T1 sequence: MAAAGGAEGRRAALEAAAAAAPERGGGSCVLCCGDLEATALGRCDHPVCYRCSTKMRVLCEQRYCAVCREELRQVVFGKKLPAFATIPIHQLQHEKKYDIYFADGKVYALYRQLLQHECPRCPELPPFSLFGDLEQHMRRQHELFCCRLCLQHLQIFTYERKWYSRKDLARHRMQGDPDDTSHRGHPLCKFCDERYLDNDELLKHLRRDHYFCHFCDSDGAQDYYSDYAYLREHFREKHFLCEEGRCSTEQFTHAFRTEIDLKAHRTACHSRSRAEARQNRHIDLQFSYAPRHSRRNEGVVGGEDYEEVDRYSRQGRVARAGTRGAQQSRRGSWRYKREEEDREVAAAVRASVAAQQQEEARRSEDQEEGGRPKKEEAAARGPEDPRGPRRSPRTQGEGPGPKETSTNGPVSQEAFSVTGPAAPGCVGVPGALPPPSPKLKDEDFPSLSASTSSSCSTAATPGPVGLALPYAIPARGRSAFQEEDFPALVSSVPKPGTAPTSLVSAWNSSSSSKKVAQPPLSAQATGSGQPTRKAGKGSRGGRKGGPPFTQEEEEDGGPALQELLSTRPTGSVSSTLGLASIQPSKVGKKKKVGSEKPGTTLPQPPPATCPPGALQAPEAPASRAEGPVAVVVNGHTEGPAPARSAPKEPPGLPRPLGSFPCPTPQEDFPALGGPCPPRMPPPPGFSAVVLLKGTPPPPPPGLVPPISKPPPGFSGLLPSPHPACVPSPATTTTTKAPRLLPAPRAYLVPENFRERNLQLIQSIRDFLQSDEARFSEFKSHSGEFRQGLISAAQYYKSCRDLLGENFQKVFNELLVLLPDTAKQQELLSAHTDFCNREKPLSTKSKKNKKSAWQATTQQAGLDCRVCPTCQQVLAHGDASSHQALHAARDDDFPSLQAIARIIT

[2] = target: TOM20 (human (endogenous in LN299 and T24)) (UniProt Q15388); assay: co-IP; IP with anti-TOM20 from the mitochondrial fraction of LN299 cells, untreated or EME-treated (Fig. 3A) and EME with or without CCCP co-treatment (Fig. 5M); NP40 IP-lysis buffer, antibody overnight at 4°C, magnetic beads, Western blot
[3] = target: HSP60 (human (endogenous in T24)) (UniProt P10809); assay: co-IP; IP with anti-HSP60 from the mitochondrial fractions of T24 cells, with or without EME; NP40 IP-lysis buffer, antibody overnight at 4°C, magnetic beads, Western blot
[4] = target: electron transport chain (ETC) complex-I protein C-I30 (human (endogenous in LN299)) (UniProt O75489); assay: co-IP; IP with anti-C-I30 from LN299 cells, EME-treated; NP40 IP-lysis buffer, antibody overnight at 4°C, magnetic beads, Western blot

Question: How did the binding [1] turn out when TOM20 (from UniProt Q15388 1-145) was run?
Answer: Its binding is “binds”.

B1: NEMF (protein, UniProt O60524 1-1076)
chain: MKSRFSTIDLRAVLAELNASLLGMRVNNVYDVDNKTYLIRLQKPDFKATLLLESGIRIHTTEFEWPKNMMPSSFAMKCRKHLKSRRLVSAKQLGVDRIVDFQFGSDEAAYHLIIELYDRGNIVLTDYEYVILNILRFRTDEADDVKFAVRERYPLDHARAAEPLLTLERLTEIVASAPKGELLKRVLNPLLPYGPALIEHCLLENGFSGNVKVDEKLETKDIEKVLVSLQKAEDYMKTTSNFSGKGYIIQKREIKPSLEADKPVEDILTYEEFHPFLFSQHSQCPYIEFESFDKAVDEFYSKIEGQKIDLKALQQEKQALKKLDNVRKDHENRLEALQQAQEIDKLKGELIEMNLQIVDRAIQVVRSALANQIDWTEIGLIVKEAQAQGDPVASAIKELKLQTNHVTMLLRNPYLLSEEEDDDVDGDVNVEKNETEPPKGKKKKQKNKQLQKPQKNKPLLVDVDLSLSAYANAKKYYDHKRYAAKKTQKTVEAAEKAFKSAEKKTKQTLKEVQTVTSIQKARKVYWFEKFLWFISSENYLIIGGRDQQQNEIIVKRYLTPGDIYVHADLHGATSCVIKNPTGEPIPPRTLTEAGTMALCYSAAWDARVITSAWWVYHHQVSKTAPTGEYLTTGSFMIRGKKNFLPPSYLMMGFSFLFKVDESCVWRHQGERKVRVQDEDMETLASCTSELISEEMEQLDGGDTSSDEDKEEHETPVEVELMTQVDQEDITLQSGRDELNEELIQEESSEDEGEYEEVRKDQDSVGEMKDEGEETLNYPDTTIDLSHLQPQRSIQKLASKEESSNSSDSKSQSRRHLSAKERREMKKKKLPSDSGDLEALEGKDKEKESTVHIETHQNTSKNVAAVQPMKRGQKSKMKKMKEKYKDQDEEDRELIMKLLGSAGSNKEEKGKKGKKGKTKDEPVKKQPQKPRGGQRVSDNIKKETPFLEVITHELQDFAVDDPHDDKEEQDLDQQGNEENLFDSLTGQPHPEDVLLFAIPICAPYTTMTNYKYKVKLTPGVQKKGKAAKTALNSFMHSKEATAREKDLFRSVKDTDLSRNIPGKVKVSAPNLLNVKRK
Question: For B1, which binding [2] is on record?
Answer: The binding was “binds”.

Question: And the binding [3]?
Answer: Its binding is “binds”.

Question: What about the binding [1] of the same molecule?
Answer: Its binding is “binds”.

B2: ZNF598 (protein, UniProt Q86UK7 1-904)
chain: T1 sequence
Question: What does the source list for B2?
Answer: binding [4]: binds; binding [2]: binds; binding [3]: binds
